From US6866833B1, “Substituted thiourea complexing agent and a method for extracting a noble metal from a matrix using the complexing agent” (University College Cork, priority 1999, dated 2005)
Values joined by “and” are separate entries in the source; they are usually repeats but may differ in a detail not shown here. Equal values may be shown once.

Assays:
[1] = Supercritical fluid extraction of Au(III) as AuCl4^− from filter paper, gold determined by atomic absorption spectroscopy; conditions: for gold extraction: 450 atmospheres
Description: Gold Au(III) extraction by the ligand of the comparative Example (a) was investigated employing a BDH Gold (III) standard containing 1000 ppm Au(III) (aqueous AuCl4^−). Thus 60 μl of solution Au(III) containing 3.05×10^−7 moles Au(III) was applied to a 3 cm diameter filter paper. The filter paper was allowed to dry and then placed in a glass tube (2 cm×0.5 cm i.d.), plugged with glass wool at both ends. 20 mg of ligand of the comparative Example (a) (in excess of over 200 fold over Au(III) level) was then placed in the same glass tube and plugged with glass wool.
The extraction vessel was statically extracted for 20 minutes and then dynamically extracted into a collecting solvent of 4 ml methanol for 15 minutes (0.8 ml CO2/minute flow rate). The methanol solution was then made up to 10 ml using additional methanol. Levels of gold in solution were then determined by atomic absorption spectroscopy. The procedure was carried out at different pressures from 200-400 atm. The following extraction percentages were obtained:
The procedure in Example 5(a) was repeated except the temperature of the extraction procedure was varied from 60-120° C., while maintaining the pressure of the extractor at 400 atm. The following results were obtained:
The procedure in Example 6 was repeated with the ligand from Example 1 being used in place of the ligand of the Comparative Example (a). The following % extraction values were obtained at differing pressures for extraction of Au(III):
The procedure of Example 7 was repeated employing the ligand of Example 2 in place of the ligand of Example 1 and utilising 50 μl Au(III) standard solution in place of 60 μl to give the following % extraction results at differing pressures of SF—CO2 at 60° C.

[2] = Supercritical fluid extraction of elemental gold Au(O), without oxidant
[3] = Supercritical fluid extraction of Au(O) first oxidised to Au(I) by spiking with Fe(III); conditions: 11.2 mg Au(O) + 60 μl Fe(III) (1000 ppm) + 20 mg ligand
[4] = 60° C., 250 atm SF—CO2, 60 μl 1000 ppm Au(III), 20 mg ligand
[5] = 60° C., 60 μl 1000 ppm Au(III), 20 mg ligand
[6] = 11.2 mg solid Au(O) + 20 mg ligand, no Fe(III)
[7] = 60 μl Au(O) suspension on filter paper, 200 atm SF—CO2
[8] = 60 μl Au(O) suspension on filter paper, 250 atm SF—CO2
[9] = 60 μl Au(O) suspension on filter paper, 300 atm SF—CO2
[10] = 60 μl Au(O) suspension on filter paper, 350 atm SF—CO2
[11] = 60 μl Au(O) suspension on filter paper, 400 atm SF—CO2

SMILES: NC(=S)Nc1cc(C(F)(F)F)cc(C(F)(F)F)c1 [Comparative Example (a)]
- Extraction ([1]; 60° C., 200 atm SF—CO2, 60 μl 1000 ppm Au(III), 20 mg ligand): 0%
- Extraction [1, 4]: 0%
- Extraction ([1]; 60° C., 300 atm SF—CO2, 60 μl 1000 ppm Au(III), 20 mg ligand): ˜0.0%
- Extraction ([1]; 60° C., 350 atm SF—CO2, 60 μl 1000 ppm Au(III), 20 mg ligand): 0%
- Extraction ([1]; 60° C., 400 atm SF—CO2, 60 μl 1000 ppm Au(III), 20 mg ligand): 6.7%
- Extraction ([1]; 400 atm, 60° C. (temperature series)): 8.8%
- Extraction ([1]; 400 atm, 80° C.): 0.7%
- Extraction ([1]; 400 atm, 100° C.): 2.0%
- Extraction ([1]; 400 atm, 120° C.): 1.6%

SMILES: CCCCCCCCNC(=S)NC [Comparative Example (b), N-methyl,N′-octyl thiourea]
- Extraction [1, 4]: 3.2%
- gold extraction [1, 5]: 2.0%

SMILES: CCCCCCCCCCCCNC(=S)NC [Comparative Example (c), N-methyl, N′-dodecyl thiourea]
- Extraction [1, 4]: 2.6%
- gold extraction [1, 5]: 1.3%

SMILES: FC(F)(F)c1cc(NC(=S)NCC(F)(F)C(F)(F)C(F)(F)F)cc(C(F)(F)F)c1 [Example 1]
- Extraction ([1]; Example 7: 200 atm SF—CO2, Au(III), 20 mg ligand): 61.2%
- Extraction ([1]; Example 7: 250 atm SF—CO2, Au(III), 20 mg ligand): 92.7%
- Extraction ([1]; Example 7: 300 atm SF—CO2, Au(III), 20 mg ligand): 83.7%
- Extraction ([1]; Example 7: 350 atm SF—CO2, Au(III), 20 mg ligand): 75.3%
- Extraction ([1]; Example 7: 400 atm SF—CO2, Au(III), 20 mg ligand): 78.1%
- Atomic Absorption [2, 6]: 0.001 A.U.
- Extraction [2, 6]: 0%
- Atomic Absorption [2, 7]: 0.001 A.U
- Extraction [2, 7]: ˜0.0%
- Atomic Absorption [2, 8]: 0.002 A.U
- Extraction [2, 8]: ˜0.0%
- Atomic Absorption [2, 9]: 0.0001 A.U
- Extraction [2, 9]: ˜0.0%
- Atomic Absorption [2, 10]: 0.002 A.U
- Extraction [2, 10]: ˜0.0%
- Atomic Absorption [2, 11]: 0.002 A.U
- Extraction [2, 11]: ˜0.0%
- Extraction of Au(O) (in words) ([2]; Au(O) on filter paper, no oxidant): did not extract Au(O)
- Atomic Absorption ([3]; 212 μl 1000 ppm Au standard 1.263 = 100%): 0.252 A.U. and 0.253 A.U.
- Extraction ([3]; relative to gold oxidisable by Fe(III) (limiting reagent)): 20.0%
